# Experimental data: the supplement of paper PMC3334620
# Whole data set: some 33,000 sequences, median “E-score (-0.5 to 0.5)” near -8e-05, cut for the highest 2% near 0.23. Some of the results follow.
# Target: T1, Nrg2 (UniProt P38082)
# T1 sequence: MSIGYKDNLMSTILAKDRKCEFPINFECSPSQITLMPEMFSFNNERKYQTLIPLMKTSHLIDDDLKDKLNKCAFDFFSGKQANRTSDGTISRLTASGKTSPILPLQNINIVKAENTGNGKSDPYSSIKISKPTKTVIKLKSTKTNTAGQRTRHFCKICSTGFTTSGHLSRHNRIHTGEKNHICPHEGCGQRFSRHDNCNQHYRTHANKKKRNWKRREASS
# Test: PBM E-score (8-mer binding enrichment) (E-score (-0.5 to 0.5)); higher = stronger / more preferred TF binding
# Settings: protein concentration: 100 nM; construct: GST-full length
# Outline: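 PURExpress in vitro transcription/translation supplied GST-tagged yeast transcription factors, either full-length or DNA-binding domain. Applied at about 100-200 nM to universal all-10-mer Agilent arrays double-stranded by primer extension, the bound protein was detected with fluorescent anti-GST. E-scores, modified Wilcoxon-Mann-Whitney statistics, were given by the Universal PBM Analysis Suite to ungapped eight-base words pooled with their reverse complements after masliner normalisation.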
row,Sequence,PBM E-score
1,AGTTACCA,0.138
2,CCTGTACA,0.0705
3,ACGGAGGG,0.00822
4,CAATATTC,0.0479
5,CTCATTTA,0.0983
6,ATGCGGGG,-0.167
7,CCAGGAAC,-0.0968
8,CAGGATAA,0.0945
9,AGGTCCAA,-0.0549
10,AACGGATT,0.148
11,GCAATGGC,-0.17
12,TCAAGGCA,-0.129
13,CCTCGGAG,-0.1
14,AGCCAGAA,-0.0741
15,AACTGAAG,0.173
16,AGACAGTC,-0.193
17,ACGGTGCA,-0.143
18,ACTGGGCG,-0.228
19,CTCGGGAC,-0.0991
20,TACTGTGA,0.121
21,GGGACACC,-0.00517
22,ACGTTGTA,-0.0794
23,CAAGTGCC,-0.083
24,CCGGACCG,-0.116
25,TACAAAGA,0.0477

row,Sequence,PBM E-score
1,ACCGATAG,0.0925
2,AGCAATCC,-0.18
3,CCGGCGGA,0.104
4,CATCAGAG,0.0544
5,GCTTGAAC,0.113
6,GATGCGGA,-0.141
7,CGTCCGCC,-0.116
8,ATAATACC,0.171
9,GTCTCTCA,-0.0103
10,CCAGATCA,0.0769
11,GGGTGCAC,0.101
12,CCTGGAAC,-0.00717
13,AGGTCAAC,-0.0898
14,GCTAGAAC,-0.155
15,ATCGTCGA,0.00274
16,CCTGGCCA,0.124
17,AAGGATGG,-0.186
18,ATCGACCC,0.132
19,GGCTGTAC,-0.264
20,GGGCTGCA,0.0573
21,GGTAATGA,0.0524
22,CAAATTAG,0.158
23,AAATGTTA,-0.0387
24,AAGAGGGC,-0.0181
25,ACTGTCCC,0.11

# Another view of some results above.
row	Sequence	PBM E-score
1	ACCGATAG	0.0925
5	GCTTGAAC	0.113
10	CCAGATCA	0.0769
23	AAATGTTA	-0.0387

# The list continues.

row,Sequence,PBM E-score
1,TAGTCGCA,0.0306
2,CGAATGCG,0.121
3,CTCAGCCA,0.0142
4,CACACCCG,-0.0461
5,GCCAAAAC,0.0379
6,TAATAAAA,0.201
7,CAGGGCCA,-0.0826
8,CTGATTTC,0.107
9,ACGATCCT,-0.0869
10,AACGCTAT,-0.0353
11,AGCACGAG,0.00933
12,GGTATCAA,0.102
13,ATGTCGCG,0.047
14,AGGGATCC,0.0843
15,CGAGAACG,0.058
16,GCTGACCA,0.108
17,ACTTGTTC,-0.129
18,GCGAGACC,-0.0404
19,AATGAATT,0.147
20,GAAGAACC,-0.184
21,CCTCCCGC,0.0411
22,ACAGGACC,0.00619
23,GTTGGGGA,0.0557
24,AGTGGGTA,0.0744
25,AGACCGAT,-0.0473

row,Sequence,PBM E-score
1,CACATGGG,0.0939
2,AGCATCCC,-0.152
3,ACTACAAC,0.0872
4,TATGGGAA,0.0283
5,AAAAACGA,0.0943
6,CACGCAGA,0.0609
7,TCTCCGCA,-0.185
8,CAGGTACC,-0.179
9,CCTCCTCG,-0.109
10,GAACGGGC,-0.242
11,GAAGCGTC,-0.0163
12,AGTCTGCG,-0.214
13,CCCGACAC,-0.178
14,ATCCCATA,-0.0872
15,CAAGTTGG,0.225
16,CATGGTCC,0.0356
17,ATACTGCG,0.0423
18,AGTCACAA,0.0698
19,GCAAGCCC,0.0658
20,GTATGAGA,0.133
21,ATAGCAAA,-0.0613
22,CATGCGGC,-0.119
23,ATGAGGAA,-0.0003
24,AAGCGCGG,0.0909
25,CCAAGCGA,-0.0864

row,Sequence,PBM E-score
1,CACTCTCC,0.0146
2,ACTGGTGA,-0.145
3,CCCCCCCA,-0.452
4,GATGCATA,0.113
5,CCTTAATA,0.19
6,GGTACAGA,0.0161
7,CAAGATAG,0.15
8,GCGATTAC,-0.0166
9,CATCCTGC,-0.164
10,CCACTCAC,0.0481
11,GACCGCGA,0.121
12,ATTTTTGC,0.051
13,GCGTGAGA,0.297
14,ATTGTCGG,0.247
15,AACCTTTC,-0.0385
16,CGGAAAAG,-0.0153
17,AAGAGAGT,-0.186
18,CCACAACC,0.104
19,CTAGAGCC,-0.114
20,AACCAGCA,-0.0198
21,CTATGCAC,-0.0708
22,TGAGCCAA,-0.0409
23,GACACACC,0.0354
24,GATGCGCC,0.0405
25,AAGAATTG,0.204

row,Sequence,PBM E-score
1,CAACTGGA,0.0171
2,TAGCCATA,-0.118
3,ATGGGAGC,-0.0437
4,ACGCTAGC,-0.277
5,AGAATTAC,0.0665
6,CCAGACCA,0.0135
7,GAATGTCA,-0.0564
8,CTCACACA,0.104
9,GCTAGAAA,0.112
10,CCATCCCA,-0.112
11,AATGTGTC,0.104
12,TGACACAA,0.146
13,CCCTTAGA,0.0891
14,CGTTCTCA,-0.0327
15,GGTTCGAC,0.0637
16,CAACCATC,-0.196
17,AACGGGCC,-0.0959
18,CAGAGAGC,-0.182
19,ACTACGCA,-0.0904
20,AGTGCATA,-0.134
21,ATCTCCCC,-0.0893
22,ACAAATTA,0.134
23,ATGGGTCA,-0.0805
24,AATGAAAC,0.116
25,AACGCGGG,0.209

# Pulled one by one from the list above:
row,Sequence,PBM E-score
23,ATGGGTCA,-0.0805
13,CCCTTAGA,0.0891
15,GGTTCGAC,0.0637
5,AGAATTAC,0.0665
3,ATGGGAGC,-0.0437
18,CAGAGAGC,-0.182

# The results go on.

row,Sequence,PBM E-score
1,CACCGAGG,-0.196
2,GATCAAGA,-0.0644
3,CATCAGCC,0.0269
4,ACCCTGGG,0.328
5,ACCTCCTG,-0.231
6,AAACTCGG,0.149
7,CCAGCCAG,-0.13
8,AGATATTA,-0.0063
9,TACCTTCA,-0.0237
10,AGACGCCA,-0.111
11,GCGATCCA,0.226
12,CGACGCCC,0.0822
13,ACCTGGGG,-0.265
14,CCGCTTAA,0.0585
15,AGGCTATA,-0.18
16,GGACTGGA,-0.113
17,TAAGAGTA,0.0104
18,CCAGAGGC,-0.141
19,CTGCATTA,-0.0698
20,CATGATCA,0.117
21,ATTTACAG,0.0132
22,AAGTGTCT,0.138
